These are yes or no findings as the source states them, for the method shown. In cells and extracts the contact can be indirect. Some results given as binding are weak or reduced against the parent protein; the word gives no strength. For some assays here: Where a sequence is shown, tags or fusion partners need not be part of it.
Assays:
[1] = target: Flag-Aurora B (UniProt Q96GD4); assay: co-IP; HEK293 cells transiently transfected with Flag-Aurora B or HA-Aurora A, nocodazole block; Aurora B precipitated with anti-Flag mouse MAb cross-linked to resin beads, Aurora A with anti-HA antibody; blot probed with anti-YY1; non-transfected cells as control
[2] = target: T1, HA-Aurora A (UniProt O14965); assay: as above
T1 sequence: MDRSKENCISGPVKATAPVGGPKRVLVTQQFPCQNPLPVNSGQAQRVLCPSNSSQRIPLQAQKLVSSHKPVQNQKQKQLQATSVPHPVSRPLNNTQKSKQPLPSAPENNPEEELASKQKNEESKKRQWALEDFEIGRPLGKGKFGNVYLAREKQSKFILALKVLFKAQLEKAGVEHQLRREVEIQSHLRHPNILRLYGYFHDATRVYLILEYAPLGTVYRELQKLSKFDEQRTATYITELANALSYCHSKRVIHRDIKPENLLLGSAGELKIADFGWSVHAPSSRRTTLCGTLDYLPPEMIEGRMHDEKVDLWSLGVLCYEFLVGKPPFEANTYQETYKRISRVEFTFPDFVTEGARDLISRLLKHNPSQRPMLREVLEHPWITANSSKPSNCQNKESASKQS

Chains of the proteins cited; added tags and fusions are not shown.
UniProt Q96GD4: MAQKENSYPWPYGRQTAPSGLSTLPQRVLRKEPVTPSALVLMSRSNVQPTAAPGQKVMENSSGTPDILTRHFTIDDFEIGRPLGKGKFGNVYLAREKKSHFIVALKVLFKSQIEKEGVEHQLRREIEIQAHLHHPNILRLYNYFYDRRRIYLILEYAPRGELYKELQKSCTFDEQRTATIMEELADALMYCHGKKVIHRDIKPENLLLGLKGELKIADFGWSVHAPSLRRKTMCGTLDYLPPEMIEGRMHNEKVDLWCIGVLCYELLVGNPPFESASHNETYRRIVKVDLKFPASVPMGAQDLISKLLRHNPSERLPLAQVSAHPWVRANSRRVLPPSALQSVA
UniProt P25490: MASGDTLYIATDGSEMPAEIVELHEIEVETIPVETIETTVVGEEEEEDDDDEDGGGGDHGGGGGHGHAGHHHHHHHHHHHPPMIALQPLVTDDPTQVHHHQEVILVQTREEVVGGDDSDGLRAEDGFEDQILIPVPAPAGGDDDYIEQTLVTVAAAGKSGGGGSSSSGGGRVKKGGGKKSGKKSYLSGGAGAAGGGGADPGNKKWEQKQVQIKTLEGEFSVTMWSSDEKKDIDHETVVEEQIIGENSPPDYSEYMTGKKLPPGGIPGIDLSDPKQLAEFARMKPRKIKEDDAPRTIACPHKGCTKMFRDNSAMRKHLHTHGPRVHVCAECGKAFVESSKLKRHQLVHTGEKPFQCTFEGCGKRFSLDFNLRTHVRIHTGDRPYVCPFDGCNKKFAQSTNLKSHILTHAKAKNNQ

Yin Yang 1 (YY1), endogenous (from UniProt P25490 1-414)
binding [1]: binds | binding [2]: binds

From PMC3511337
